Results on 4 molecules are retold here after article PMC8266847.

By UniProt entry, the sequences of proteins in these tests, tags left out. Where a name states a change or a piece, a line headed by the entry shows the natural chain unless it says otherwise. Residues count along the entry.
UniProt P03165: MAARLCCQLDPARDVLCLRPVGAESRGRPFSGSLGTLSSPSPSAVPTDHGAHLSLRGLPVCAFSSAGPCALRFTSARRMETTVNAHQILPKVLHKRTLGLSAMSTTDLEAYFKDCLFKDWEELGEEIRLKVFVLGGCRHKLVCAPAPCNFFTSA
UniProt P10809, residues 27-573: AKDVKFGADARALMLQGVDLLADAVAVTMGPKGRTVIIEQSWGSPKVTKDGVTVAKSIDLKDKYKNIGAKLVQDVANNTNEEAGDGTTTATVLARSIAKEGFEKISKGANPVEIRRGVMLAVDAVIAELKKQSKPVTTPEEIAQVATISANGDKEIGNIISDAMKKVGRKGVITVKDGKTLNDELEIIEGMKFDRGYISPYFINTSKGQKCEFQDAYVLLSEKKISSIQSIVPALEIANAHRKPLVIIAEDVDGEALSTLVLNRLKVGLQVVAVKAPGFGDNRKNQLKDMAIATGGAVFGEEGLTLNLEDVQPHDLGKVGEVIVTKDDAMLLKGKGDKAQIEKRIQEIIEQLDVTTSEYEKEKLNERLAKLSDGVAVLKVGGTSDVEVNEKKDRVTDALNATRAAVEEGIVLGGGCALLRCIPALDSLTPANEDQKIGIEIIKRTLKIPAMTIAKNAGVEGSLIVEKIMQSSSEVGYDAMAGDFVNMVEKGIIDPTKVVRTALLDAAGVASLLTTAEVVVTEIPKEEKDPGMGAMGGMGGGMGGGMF
UniProt Q13526: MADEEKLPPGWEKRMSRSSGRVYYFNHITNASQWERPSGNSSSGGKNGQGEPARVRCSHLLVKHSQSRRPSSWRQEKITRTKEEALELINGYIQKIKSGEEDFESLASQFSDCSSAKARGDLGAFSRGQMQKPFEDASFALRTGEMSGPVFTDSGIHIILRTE
UniProt Q16531: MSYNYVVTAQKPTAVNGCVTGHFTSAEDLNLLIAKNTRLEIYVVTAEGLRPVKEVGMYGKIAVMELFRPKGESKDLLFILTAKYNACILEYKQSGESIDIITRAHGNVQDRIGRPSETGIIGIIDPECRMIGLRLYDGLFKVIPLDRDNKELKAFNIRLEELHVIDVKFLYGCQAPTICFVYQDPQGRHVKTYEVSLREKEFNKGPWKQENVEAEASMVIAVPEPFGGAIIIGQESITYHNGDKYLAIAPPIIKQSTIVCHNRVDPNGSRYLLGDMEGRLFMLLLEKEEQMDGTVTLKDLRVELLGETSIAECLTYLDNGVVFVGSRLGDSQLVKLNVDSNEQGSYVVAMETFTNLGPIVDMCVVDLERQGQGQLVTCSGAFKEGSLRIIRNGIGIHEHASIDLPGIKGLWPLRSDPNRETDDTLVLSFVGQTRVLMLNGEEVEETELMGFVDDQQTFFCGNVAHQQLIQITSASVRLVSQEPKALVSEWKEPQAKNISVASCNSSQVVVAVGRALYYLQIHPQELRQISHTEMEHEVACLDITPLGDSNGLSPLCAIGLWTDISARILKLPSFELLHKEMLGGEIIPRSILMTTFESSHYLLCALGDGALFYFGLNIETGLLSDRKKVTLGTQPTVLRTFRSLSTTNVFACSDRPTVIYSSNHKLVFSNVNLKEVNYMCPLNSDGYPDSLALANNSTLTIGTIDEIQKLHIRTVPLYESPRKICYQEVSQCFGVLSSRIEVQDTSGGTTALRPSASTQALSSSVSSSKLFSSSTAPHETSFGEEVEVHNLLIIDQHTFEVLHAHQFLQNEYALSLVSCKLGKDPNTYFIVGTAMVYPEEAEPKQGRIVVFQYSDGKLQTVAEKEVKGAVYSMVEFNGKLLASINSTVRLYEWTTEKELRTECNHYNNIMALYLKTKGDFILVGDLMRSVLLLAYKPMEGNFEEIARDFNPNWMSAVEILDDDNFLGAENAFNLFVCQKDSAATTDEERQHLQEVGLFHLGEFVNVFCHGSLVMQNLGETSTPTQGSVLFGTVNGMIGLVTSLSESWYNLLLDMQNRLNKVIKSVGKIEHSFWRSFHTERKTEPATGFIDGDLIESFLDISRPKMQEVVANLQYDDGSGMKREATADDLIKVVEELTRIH

These are yes or no findings as the source states them, for the method shown. In cells and extracts the contact can be indirect. These calls come from enrichment with a bait or labelling near it, and not all partners need be listed. A no says only that the protein was not detected with the bait.

To fix the notation:
B1: peroxiredoxin-4 (PRDX4), endogenous in HepG2 cells (protein, UniProt Q13162 38-271)
chain: WETEERPRTREEECHFYAGGQVYPGEASRVSVADHSLHLSKAKISKPAPYWEGTAVIDGEFKELKLTDYRGKYLVFFFYPLDFTFVCPTEIIAFGDRLEEFRSINTEVVACSVDSQFTHLAWINTPRRQGGLGPIRIPLLSDLTHQISKDYGVYLEDSGHTLRGLFIIDDKGILRQITLNDLPVGRSVDETLRLVQAFQYTDKHGEVCPAGWKPGSETIIPDPAGKLKYFDKLN

In the experiment the target is GST-HBx-D5 (truncated HBx containing N-terminal amino acids 1-50, fused to GST) (hepatitis B virus) (UniProt P03165). Put plainly: affinity purification with mass spectrometry; GST-HBx or GST-HBx-D5 on glutathione-Sepharose beads incubated with HepG2 cell lysate overnight at 4 °C, GST as negative control; eluates of three parallel experiments pooled, SDS-PAGE, silver staining, in-gel digestion, MS/MS; only the target purified.
Turning to “mitochondrial 60 kDa heat shock protein (HSPD1), endogenous in HepG2 cells (from UniProt P10809 27-573)”, the binding result was “no binding”.

As to “Pin1 (peptidyl-prolyl cis-trans isomerase), endogenous in HepG2 cells (from UniProt Q13526 1-163)”, the binding entry is given as “no binding”.

Consider “DNA damage-binding protein 1 (DDB1), endogenous in HepG2 cells (from UniProt Q16531 1-1140)”, for which the binding entry is reported as “no binding”.

With B1, the binding result is “no binding”.
